Reference: article PMC12607708
These are yes or no findings as the source states them, for the method shown. Binding calls can cover weak binding; strength is not graded here.

Chains of the proteins cited; added tags and fusions are not shown.
UniProt Q14457: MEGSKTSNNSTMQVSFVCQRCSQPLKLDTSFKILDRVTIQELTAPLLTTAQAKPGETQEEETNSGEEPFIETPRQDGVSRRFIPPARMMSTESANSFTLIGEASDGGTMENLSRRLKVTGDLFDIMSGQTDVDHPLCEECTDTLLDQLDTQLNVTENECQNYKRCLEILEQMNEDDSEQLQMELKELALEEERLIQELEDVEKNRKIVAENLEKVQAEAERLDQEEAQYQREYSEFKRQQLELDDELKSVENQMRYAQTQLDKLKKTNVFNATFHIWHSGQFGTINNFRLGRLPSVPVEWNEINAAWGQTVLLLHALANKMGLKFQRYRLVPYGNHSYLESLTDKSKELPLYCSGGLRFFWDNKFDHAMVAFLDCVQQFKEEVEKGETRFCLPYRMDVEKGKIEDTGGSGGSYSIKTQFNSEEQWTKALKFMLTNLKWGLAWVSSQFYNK

Biological target: PikA in fusion with the GAL4 DNA-binding domain (Rickettsia rickettsii)
Assay: two-hybrid

In the case of “Beclin 1 in fusion with the GAL activation domain (from UniProt Q14457 1-450)”, the binding was “binds”.
